The values below come from ChEMBL document CHEMBL5042558, “Selective Macrocyclic Inhibitors of DYRK1A/B” (ACS Med Chem Lett, 2022).

The chains behind the UniProt entries cited, without tags or fusion partners.
UniProt Q9Y463, whole entry: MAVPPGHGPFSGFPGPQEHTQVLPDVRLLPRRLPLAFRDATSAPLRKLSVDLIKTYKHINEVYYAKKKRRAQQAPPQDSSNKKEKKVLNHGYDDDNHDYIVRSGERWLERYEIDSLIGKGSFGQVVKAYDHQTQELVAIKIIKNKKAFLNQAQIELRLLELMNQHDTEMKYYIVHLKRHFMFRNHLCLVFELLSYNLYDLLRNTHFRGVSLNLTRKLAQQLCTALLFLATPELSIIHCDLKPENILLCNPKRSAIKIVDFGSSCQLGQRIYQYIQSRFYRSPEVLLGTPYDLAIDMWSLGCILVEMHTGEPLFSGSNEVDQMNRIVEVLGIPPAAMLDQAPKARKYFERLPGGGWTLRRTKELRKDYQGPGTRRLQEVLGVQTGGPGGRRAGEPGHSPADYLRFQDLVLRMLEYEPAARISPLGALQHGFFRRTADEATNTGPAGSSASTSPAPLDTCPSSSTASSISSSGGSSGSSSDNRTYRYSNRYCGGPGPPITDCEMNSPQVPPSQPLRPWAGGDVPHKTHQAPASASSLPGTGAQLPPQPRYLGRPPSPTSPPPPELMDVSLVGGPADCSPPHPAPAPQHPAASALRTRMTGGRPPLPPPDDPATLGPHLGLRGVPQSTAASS

Experiment [1] has as its target T1, Dual specificity tyrosine-phosphorylation-regulated kinase 1B (Homo sapiens, UniProt Q9Y463). The experiment can be described thus: Inhibition of DYRK1B (unknown origin) at 1 uM by kinomescan method.
The target in experiment [2] is T1, Dual specificity tyrosine-phosphorylation-regulated kinase 1B. Kind of experiment: Inhibition of DYRK1B (unknown origin) measured after 6 hrs in presence of ATP by Z'-LYTE assay.

As for `CN1Cc2nn(C)c(C#N)c2-c2cnc3[nH]c(F)c(c3c2)-c2cn(nc2C(F)(F)F)CCCC1=O`, the IC50 in experiment [1] and in experiment [2] was 5 nM in each case.
